Measured values: the supplement of paper PMC6411743
± gives the standard deviation of the averaged measurements. The list shows a part of the results, in another mix than the full data.

Amino acid sequences for entries named in this document (tags omitted). A change or cut given only in a name is not applied to a line headed by its entry.
UniProt Q9NRG0: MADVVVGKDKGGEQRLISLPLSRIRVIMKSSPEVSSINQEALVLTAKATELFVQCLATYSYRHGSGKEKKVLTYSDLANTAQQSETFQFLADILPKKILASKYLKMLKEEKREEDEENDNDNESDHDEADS
UniProt Q9NUT2: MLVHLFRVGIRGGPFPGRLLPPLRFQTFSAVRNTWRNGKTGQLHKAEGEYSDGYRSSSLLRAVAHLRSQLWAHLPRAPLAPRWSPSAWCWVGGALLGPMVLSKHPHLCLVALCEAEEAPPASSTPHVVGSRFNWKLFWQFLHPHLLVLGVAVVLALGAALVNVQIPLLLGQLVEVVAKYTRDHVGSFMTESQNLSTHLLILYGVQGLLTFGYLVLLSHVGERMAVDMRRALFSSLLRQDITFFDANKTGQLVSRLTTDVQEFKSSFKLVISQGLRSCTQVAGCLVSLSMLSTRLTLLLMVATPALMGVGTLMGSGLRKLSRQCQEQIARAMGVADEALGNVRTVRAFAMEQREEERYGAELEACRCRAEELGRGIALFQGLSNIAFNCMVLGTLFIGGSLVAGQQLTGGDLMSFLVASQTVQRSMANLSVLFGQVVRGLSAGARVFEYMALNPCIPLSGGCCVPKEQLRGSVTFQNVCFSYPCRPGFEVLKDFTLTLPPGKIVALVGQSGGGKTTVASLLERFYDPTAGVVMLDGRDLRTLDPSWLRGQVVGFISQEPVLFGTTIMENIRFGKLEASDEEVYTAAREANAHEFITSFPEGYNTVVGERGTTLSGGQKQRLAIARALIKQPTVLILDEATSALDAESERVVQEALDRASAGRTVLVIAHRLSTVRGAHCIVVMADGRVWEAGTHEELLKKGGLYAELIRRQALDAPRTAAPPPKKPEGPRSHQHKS
UniProt Q9NZD8: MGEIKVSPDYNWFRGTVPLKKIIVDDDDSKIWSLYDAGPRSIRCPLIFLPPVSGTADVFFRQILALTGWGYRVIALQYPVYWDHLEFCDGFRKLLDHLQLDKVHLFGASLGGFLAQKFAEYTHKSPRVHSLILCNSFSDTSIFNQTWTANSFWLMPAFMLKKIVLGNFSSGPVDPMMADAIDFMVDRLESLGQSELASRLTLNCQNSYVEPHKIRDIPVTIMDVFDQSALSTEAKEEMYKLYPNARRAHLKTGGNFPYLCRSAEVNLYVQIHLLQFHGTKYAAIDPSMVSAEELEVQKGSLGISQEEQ
UniProt Q9NTM9: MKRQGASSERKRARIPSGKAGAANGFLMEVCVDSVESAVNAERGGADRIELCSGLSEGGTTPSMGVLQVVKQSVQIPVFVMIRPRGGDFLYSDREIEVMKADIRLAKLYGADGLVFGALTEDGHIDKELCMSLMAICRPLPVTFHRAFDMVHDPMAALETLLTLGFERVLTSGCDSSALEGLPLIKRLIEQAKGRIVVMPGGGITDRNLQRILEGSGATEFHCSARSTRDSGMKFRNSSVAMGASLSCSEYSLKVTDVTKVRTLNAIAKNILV
UniProt Q9NUA8: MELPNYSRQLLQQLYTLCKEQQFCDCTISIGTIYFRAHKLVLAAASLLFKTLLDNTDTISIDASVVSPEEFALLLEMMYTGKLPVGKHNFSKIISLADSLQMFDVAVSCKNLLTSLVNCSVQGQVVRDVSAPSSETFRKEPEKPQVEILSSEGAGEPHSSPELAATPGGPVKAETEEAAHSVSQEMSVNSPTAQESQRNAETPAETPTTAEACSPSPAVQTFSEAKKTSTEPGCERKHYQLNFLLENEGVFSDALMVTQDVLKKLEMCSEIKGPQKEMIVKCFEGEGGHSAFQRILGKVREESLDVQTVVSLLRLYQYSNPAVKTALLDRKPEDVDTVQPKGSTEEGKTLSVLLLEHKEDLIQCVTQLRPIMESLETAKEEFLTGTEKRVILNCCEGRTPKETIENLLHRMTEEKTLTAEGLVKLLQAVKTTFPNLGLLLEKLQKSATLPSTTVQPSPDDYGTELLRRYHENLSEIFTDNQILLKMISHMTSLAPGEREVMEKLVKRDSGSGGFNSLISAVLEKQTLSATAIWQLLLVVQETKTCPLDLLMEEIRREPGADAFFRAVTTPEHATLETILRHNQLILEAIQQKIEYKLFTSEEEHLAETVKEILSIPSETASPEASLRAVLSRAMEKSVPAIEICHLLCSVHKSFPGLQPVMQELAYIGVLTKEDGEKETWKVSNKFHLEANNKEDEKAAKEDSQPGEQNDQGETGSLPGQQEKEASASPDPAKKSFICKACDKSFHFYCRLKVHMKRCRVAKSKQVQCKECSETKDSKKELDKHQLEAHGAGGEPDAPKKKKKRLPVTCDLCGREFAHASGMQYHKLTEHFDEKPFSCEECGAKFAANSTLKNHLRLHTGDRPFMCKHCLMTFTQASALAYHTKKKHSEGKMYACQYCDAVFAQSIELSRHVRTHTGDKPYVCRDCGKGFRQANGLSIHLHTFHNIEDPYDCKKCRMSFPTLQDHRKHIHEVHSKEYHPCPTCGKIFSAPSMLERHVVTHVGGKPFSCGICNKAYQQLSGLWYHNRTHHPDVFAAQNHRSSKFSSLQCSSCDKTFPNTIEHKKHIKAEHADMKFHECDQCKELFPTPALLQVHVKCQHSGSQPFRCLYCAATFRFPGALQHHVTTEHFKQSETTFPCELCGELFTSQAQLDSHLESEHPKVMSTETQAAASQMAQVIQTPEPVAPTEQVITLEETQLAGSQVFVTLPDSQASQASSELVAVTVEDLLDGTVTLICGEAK
UniProt Q9NRP0: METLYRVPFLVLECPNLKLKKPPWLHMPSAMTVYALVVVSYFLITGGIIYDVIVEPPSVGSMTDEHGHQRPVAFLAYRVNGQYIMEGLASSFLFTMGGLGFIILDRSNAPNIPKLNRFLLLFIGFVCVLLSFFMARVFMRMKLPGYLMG
UniProt Q9P031: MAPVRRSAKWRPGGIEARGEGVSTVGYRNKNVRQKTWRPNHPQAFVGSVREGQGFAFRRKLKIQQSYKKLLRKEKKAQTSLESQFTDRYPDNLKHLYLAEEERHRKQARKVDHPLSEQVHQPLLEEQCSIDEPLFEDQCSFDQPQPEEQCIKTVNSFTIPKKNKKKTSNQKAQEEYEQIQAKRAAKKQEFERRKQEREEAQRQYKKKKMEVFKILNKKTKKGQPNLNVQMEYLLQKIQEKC
UniProt Q9P000, whole entry: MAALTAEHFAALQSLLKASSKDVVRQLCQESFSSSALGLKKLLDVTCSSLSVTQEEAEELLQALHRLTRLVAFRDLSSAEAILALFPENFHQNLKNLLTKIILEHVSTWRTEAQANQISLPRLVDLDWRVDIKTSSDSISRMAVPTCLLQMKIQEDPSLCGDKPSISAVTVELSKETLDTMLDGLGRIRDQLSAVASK
UniProt Q9NY12: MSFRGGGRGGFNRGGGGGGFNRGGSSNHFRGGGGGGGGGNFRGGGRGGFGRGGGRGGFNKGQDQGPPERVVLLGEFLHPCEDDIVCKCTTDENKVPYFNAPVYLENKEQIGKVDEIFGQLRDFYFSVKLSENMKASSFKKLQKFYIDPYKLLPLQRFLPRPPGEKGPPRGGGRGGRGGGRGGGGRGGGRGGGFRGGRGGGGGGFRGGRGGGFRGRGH
UniProt Q9P2N5: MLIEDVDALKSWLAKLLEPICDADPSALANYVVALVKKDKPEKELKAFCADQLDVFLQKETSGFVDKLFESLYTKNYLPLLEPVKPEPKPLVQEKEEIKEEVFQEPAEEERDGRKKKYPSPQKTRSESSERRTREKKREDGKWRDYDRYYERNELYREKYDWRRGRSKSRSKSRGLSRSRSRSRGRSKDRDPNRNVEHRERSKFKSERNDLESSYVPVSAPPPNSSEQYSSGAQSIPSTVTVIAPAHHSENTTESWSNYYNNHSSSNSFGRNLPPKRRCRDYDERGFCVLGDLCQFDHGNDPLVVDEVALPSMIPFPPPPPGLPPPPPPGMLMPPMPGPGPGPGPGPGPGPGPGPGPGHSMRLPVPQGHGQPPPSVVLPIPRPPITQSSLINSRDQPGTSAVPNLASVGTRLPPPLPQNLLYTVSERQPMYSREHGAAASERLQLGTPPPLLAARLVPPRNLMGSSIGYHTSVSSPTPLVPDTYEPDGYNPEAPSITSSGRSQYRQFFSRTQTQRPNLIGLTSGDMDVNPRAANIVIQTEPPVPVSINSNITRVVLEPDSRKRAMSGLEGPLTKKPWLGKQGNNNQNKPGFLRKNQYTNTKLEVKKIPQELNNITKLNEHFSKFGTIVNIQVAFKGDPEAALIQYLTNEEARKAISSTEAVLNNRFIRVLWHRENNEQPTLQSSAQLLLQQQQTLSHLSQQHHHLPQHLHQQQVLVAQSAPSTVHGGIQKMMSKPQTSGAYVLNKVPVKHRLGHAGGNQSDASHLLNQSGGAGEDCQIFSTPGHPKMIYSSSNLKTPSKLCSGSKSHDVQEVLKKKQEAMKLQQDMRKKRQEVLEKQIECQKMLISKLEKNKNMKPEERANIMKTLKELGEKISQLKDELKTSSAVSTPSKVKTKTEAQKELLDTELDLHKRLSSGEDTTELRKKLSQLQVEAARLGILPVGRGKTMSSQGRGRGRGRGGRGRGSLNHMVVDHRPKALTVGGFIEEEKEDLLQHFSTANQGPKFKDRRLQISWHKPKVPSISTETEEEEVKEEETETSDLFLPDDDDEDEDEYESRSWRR
UniProt Q9NUG6, whole entry: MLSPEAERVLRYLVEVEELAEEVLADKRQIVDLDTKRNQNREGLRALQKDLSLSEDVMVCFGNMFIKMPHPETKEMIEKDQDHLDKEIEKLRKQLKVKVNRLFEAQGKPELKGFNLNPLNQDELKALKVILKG
UniProt Q9NQ29: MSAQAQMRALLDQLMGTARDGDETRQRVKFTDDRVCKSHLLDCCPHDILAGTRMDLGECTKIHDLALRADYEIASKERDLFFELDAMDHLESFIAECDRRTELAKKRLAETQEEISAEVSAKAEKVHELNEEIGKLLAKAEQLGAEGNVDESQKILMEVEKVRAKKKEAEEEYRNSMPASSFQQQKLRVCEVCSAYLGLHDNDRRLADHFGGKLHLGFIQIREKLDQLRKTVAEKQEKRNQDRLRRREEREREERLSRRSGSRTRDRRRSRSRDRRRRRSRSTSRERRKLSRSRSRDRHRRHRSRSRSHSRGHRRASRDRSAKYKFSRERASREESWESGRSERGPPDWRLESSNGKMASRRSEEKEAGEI
UniProt Q9NR45: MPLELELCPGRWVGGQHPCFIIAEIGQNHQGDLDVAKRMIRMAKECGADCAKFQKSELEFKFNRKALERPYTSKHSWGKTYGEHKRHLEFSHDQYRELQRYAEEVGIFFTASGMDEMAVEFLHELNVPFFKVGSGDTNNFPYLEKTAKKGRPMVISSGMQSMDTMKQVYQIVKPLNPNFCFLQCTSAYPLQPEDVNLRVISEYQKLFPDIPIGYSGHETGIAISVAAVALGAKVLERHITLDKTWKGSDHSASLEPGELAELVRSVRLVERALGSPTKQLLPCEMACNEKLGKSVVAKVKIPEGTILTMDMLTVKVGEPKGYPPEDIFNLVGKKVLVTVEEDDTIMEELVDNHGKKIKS
UniProt Q9NUQ9: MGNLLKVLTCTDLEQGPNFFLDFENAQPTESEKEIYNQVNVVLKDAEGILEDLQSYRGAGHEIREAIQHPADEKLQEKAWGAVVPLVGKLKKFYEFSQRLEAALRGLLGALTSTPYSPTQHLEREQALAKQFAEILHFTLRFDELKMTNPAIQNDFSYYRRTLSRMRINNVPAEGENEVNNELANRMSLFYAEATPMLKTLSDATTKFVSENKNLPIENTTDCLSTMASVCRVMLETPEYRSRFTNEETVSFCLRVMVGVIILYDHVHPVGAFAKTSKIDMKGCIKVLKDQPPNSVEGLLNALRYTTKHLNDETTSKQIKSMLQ
UniProt Q9NZR1: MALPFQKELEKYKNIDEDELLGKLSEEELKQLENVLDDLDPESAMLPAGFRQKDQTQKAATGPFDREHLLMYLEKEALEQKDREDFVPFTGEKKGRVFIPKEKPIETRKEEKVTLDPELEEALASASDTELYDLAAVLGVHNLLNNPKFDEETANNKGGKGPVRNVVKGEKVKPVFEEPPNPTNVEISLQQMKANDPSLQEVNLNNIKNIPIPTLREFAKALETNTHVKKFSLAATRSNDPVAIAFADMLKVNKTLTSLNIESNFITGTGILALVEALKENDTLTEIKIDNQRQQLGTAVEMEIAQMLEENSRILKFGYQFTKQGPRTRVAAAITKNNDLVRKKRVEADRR
UniProt Q9NXE8: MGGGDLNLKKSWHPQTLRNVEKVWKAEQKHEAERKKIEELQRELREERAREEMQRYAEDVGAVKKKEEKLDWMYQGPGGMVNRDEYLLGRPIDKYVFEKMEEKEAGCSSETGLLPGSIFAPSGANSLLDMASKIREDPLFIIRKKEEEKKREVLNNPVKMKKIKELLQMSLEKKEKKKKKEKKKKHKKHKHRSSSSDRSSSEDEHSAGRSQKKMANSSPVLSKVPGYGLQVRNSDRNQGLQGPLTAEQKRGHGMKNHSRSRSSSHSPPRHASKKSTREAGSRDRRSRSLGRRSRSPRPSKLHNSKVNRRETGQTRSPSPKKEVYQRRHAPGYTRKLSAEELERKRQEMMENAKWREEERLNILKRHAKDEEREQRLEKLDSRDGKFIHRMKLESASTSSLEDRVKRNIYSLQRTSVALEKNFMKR

Compound: Nc1ncnc2c1ncn2[C@@H]1O[C@H](COP(=O)(O)OP(=O)(O)NP(=O)(O)O)[C@@H](O)[C@H]1O [adenylyl imidodiphosphate]
Experiment: NP40-soluble protein abundance relative to vehicle (solubility fold change) (ratio); higher = more soluble protein in presence of AMP-PNP
Procedure, shortened: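 Values are fold changes against the detergent-processed vehicle, based on vsn-normalised intensities. Jurkat crude lysate was treated at eight concentrations from 0.1 to 10 mM (10 min at room temperature, then 3 min at 37 °C), solubilised with 0.8% NP40 and benzonase, ultracentrifuged and analysed by TMT-labelled LC-MS/MS over three independent experiments.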

Target	NP40-soluble protein abundance (concentration: 1mM)	NP40-soluble protein abundance (concentration: 2mM)	NP40-soluble protein abundance (concentration: 4mM)	NP40-soluble protein abundance (concentration: 6mM)	NP40-soluble protein abundance (concentration: 8mM)	NP40-soluble protein abundance (concentration: 10mM)
UniProt Q9NTX5 and related entries	0.9542 ± 0.0058	0.953 ± 0.042	0.976 ± 0.012	0.951 ± 0.036	0.939 ± 0.031	0.95 ± 0.04
UniProt Q9NZQ3 and related entries	1.04 ± 0.066	0.9853 ± 0.0064	1.03 ± 0.045	0.984 ± 0.029	1.02 ± 0.047	0.99 ± 0.014
AGPAT5 (UniProt Q9NUQ2)	0.992 ± 0.051	0.936 ± 0.094	1 ± 0.078	0.949 ± 0.061	0.961 ± 0.057	0.965 ± 0.054
UniProt Q9NW15 and related entries	0.992 ± 0.031	1.01 ± 0.037	1.01 ± 0.023	0.975 ± 0.035	1.02 ± 0.08	0.969 ± 0.047
NSMCE4A (UniProt Q9NXX6)	0.993 ± 0.068	0.945 ± 0.067	0.967 ± 0.056	0.933 ± 0.017	0.96 ± 0.026	0.941 ± 0.09
UniProt Q9NRX2 and related entries	0.965 ± 0.064	0.984 ± 0.055	0.973 ± 0.054	0.977 ± 0.043	0.964 ± 0.078	0.99 ± 0.066
UniProt Q9NWU2	0.96 ± 0.045	0.999 ± 0.04	0.964 ± 0.052	0.892 ± 0.015	0.884 ± 0.0097	0.868 ± 0.036
UniProt Q9NXK8 and related entries	1.018 ± 0.0035	1 ± 0.031	0.9901 ± 0.0047	0.9994 ± 0.008	1.005 ± 0.0022	0.998 ± 0.024
UCKL1 (UniProt Q9NWZ5)	1 ± 0.014	1 ± 0.035	0.996 ± 0.022	0.95 ± 0.014	0.955 ± 0.0061	0.931 ± 0.023
UniProt Q9NRG0 and related entries	1.001 ± 0.0097	0.967 ± 0.036	0.9734 ± 0.0074	0.9919 ± 0.0028	0.95945 ± 0.00013	0.945 ± 0.014
RAD18 (UniProt Q9NS91)	1.03 ± 0.042	1.01 ± 0.032	1.07 ± 0.042	1.07 ± 0.02	1.05 ± 0.028	1.1 ± 0.039
UniProt Q9NUT2 and related entries	0.986 ± 0.026	0.932 ± 0.05	0.9832 ± 0.004	0.9535 ± 0.0073	0.946 ± 0.032	0.935 ± 0.062
UniProt Q9NZD8 and related entries	1.02 ± 0.021	0.995 ± 0.041	1.02 ± 0.021	0.988 ± 0.018	0.989 ± 0.053	0.991 ± 0.047
UniProt Q9NUY8 and related entries	0.961 ± 0.0094	0.999 ± 0.026	0.986 ± 0.014	1 ± 0.035	0.991 ± 0.027	1.01 ± 0.031
CUTC (UniProt Q9NTM9)	0.986 ± 0.046	0.895 ± 0.076	0.966 ± 0.045	1.01 ± 0.063	1.03 ± 0.047	1.002 ± 0.0056
NIT2 (UniProt Q9NQR4)	1.02 ± 0.029	0.969 ± 0.078	0.988 ± 0.043	0.968 ± 0.015	0.971 ± 0.054	0.966 ± 0.054
ZBTB40 (UniProt Q9NUA8)	0.995 ± 0.032	0.951 ± 0.017	0.941 ± 0.015	0.914 ± 0.036	0.904 ± 0.018	0.918 ± 0.026
VPS18 (UniProt Q9P253)	0.9921 ± 0.0055	0.927 ± 0.067	0.973 ± 0.011	0.949 ± 0.034	0.928 ± 0.0094	0.931 ± 0.039
UniProt Q9UBF6 and related entries	1.014 ± 0.0081	1.013 ± 0.0055	1.01 ± 0.011	1.011 ± 0.0021	1 ± 0.031	1 ± 0.028
UniProt Q9NZN8 and related entries	0.97 ± 0.034	1.05 ± 0.034	1.034 ± 0.01	1.07 ± 0.12	1.02 ± 0.095	1.1 ± 0.1

Target	NP40-soluble protein abundance (concentration: 1mM)	NP40-soluble protein abundance (concentration: 2mM)	NP40-soluble protein abundance (concentration: 4mM)	NP40-soluble protein abundance (concentration: 6mM)	NP40-soluble protein abundance (concentration: 8mM)	NP40-soluble protein abundance (concentration: 10mM)
OSTC (UniProt Q9NRP0)	1.02 ± 0.038	1.02 ± 0.025	1.03 ± 0.049	1.03 ± 0.022	1.039 ± 0.0094	1.04 ± 0.015
UniProt Q9NYU2 and related entries	0.9826 ± 0.0098	0.9 ± 0.12	0.955 ± 0.034	0.917 ± 0.031	0.936 ± 0.04	0.895 ± 0.036
UniProt Q9NQW6 and related entries	1.026 ± 0.0093	1.07 ± 0.06	1.05 ± 0.034	1.01 ± 0.03	0.98 ± 0.02	1.04 ± 0.026
CCDC59 (UniProt Q9P031)	0.972 ± 0.04	0.9869 ± 0.0081	0.972 ± 0.026	0.984 ± 0.022	0.994 ± 0.031	0.984 ± 0.025
UniProt Q9NVM4 and related entries	1 ± 0.058	0.9878 ± 0.0085	1.01 ± 0.012	0.9707 ± 0.0083	0.991 ± 0.022	0.946 ± 0.022
COMMD9 (UniProt Q9P000)	1.026 ± 0.0055	1.02 ± 0.021	1.018 ± 0.0086	0.982 ± 0.02	0.974 ± 0.015	0.989 ± 0.0045
ASF1B (UniProt Q9NVP2)	0.925 ± 0.039	0.902 ± 0.011	0.927 ± 0.019	0.921 ± 0.053	0.96 ± 0.023	0.918 ± 0.041
SACS (UniProt Q9NZJ4)	0.964 ± 0.031	0.922 ± 0.053	0.986 ± 0.025	0.923 ± 0.043	0.95 ± 0.037	0.922 ± 0.061
UniProt Q9NQW7-3	1.02 ± 0.026	0.944 ± 0.083	0.994 ± 0.032	0.952 ± 0.02	0.978 ± 0.03	0.918 ± 0.045
UniProt Q9NW68 and related entries	0.985 ± 0.038	1.05 ± 0.038	0.994 ± 0.065	0.99 ± 0.038	0.958 ± 0.024	0.951 ± 0.082
UniProt Q9NV56	1.02 ± 0.062	1.07 ± 0.05	1.01 ± 0.092	1.04 ± 0.085	1.02 ± 0.11	1.06 ± 0.13
UniProt Q9NZB2 and related entries	0.999 ± 0.08	1.01 ± 0.043	1 ± 0.078	1 ± 0.061	1.02 ± 0.06	1.05 ± 0.066
UniProt Q9NR28 and related entries	1.07 ± 0.032	1.1 ± 0.11	1.07 ± 0.024	0.985 ± 0.046	1.04 ± 0.031	1.01 ± 0.046
UniProt Q9NZT2 and related entries	1.01 ± 0.021	1.07 ± 0.1	1.05 ± 0.03	1.03 ± 0.03	1.01 ± 0.042	1.05 ± 0.07
UniProt Q9NY12 and related entries	0.986 ± 0.018	0.995 ± 0.017	1.03 ± 0.02	1.13 ± 0.032	1.19 ± 0.017	1.23 ± 0.069
RBM27 (UniProt Q9P2N5)	1.04 ± 0.021	1.15 ± 0.062	1.13 ± 0.05	1.24 ± 0.12	1.25 ± 0.11	1.34 ± 0.16
PDRG1 (UniProt Q9NUG6)	0.995 ± 0.025	0.998 ± 0.039	0.968 ± 0.0092	0.915 ± 0.016	0.904 ± 0.027	0.8644 ± 0.0075
UniProt Q9NQ29 and related entries	1.02 ± 0.04	1.13 ± 0.12	1.11 ± 0.055	1.15 ± 0.027	1.15 ± 0.091	1.35 ± 0.098
DIP2B (UniProt Q9P265)	0.967 ± 0.037	0.951 ± 0.04	0.976 ± 0.023	0.971 ± 0.027	0.974 ± 0.013	0.952 ± 0.032
UniProt Q9NZJ9 and related entries	0.983 ± 0.056	0.954 ± 0.075	1.01 ± 0.056	1.06 ± 0.088	1.09 ± 0.079	1.07 ± 0.065

3 records picked at random from those above:
Target	NP40-soluble protein abundance (concentration: 1mM)	NP40-soluble protein abundance (concentration: 2mM)	NP40-soluble protein abundance (concentration: 4mM)	NP40-soluble protein abundance (concentration: 6mM)	NP40-soluble protein abundance (concentration: 8mM)	NP40-soluble protein abundance (concentration: 10mM)
UniProt Q9NRX2 and related entries	0.965 ± 0.064	0.984 ± 0.055	0.973 ± 0.054	0.977 ± 0.043	0.964 ± 0.078	0.99 ± 0.066
AGPAT5 (UniProt Q9NUQ2)	0.992 ± 0.051	0.936 ± 0.094	1 ± 0.078	0.949 ± 0.061	0.961 ± 0.057	0.965 ± 0.054
UCKL1 (UniProt Q9NWZ5)	1 ± 0.014	1 ± 0.035	0.996 ± 0.022	0.95 ± 0.014	0.955 ± 0.0061	0.931 ± 0.023

Continuation.

Target	NP40-soluble protein abundance (concentration: 1mM)	NP40-soluble protein abundance (concentration: 2mM)	NP40-soluble protein abundance (concentration: 4mM)	NP40-soluble protein abundance (concentration: 6mM)	NP40-soluble protein abundance (concentration: 8mM)	NP40-soluble protein abundance (concentration: 10mM)
POGK (UniProt Q9P215)	0.988 ± 0.041	0.978 ± 0.035	0.969 ± 0.064	0.966 ± 0.035	0.966 ± 0.062	0.959 ± 0.035
CHD7 (UniProt Q9P2D1)	1.01 ± 0.028	1.03 ± 0.025	0.991 ± 0.011	0.953 ± 0.021	0.958 ± 0.036	0.96 ± 0.034
UniProt Q9NYF8 and related entries	1.1 ± 0.018	1.19 ± 0.08	1.19 ± 0.033	1.29 ± 0.1	1.31 ± 0.11	1.43 ± 0.12
MBD2 (UniProt Q9UBB5)	1.01 ± 0.041	1.06 ± 0.043	1.02 ± 0.037	1.033 ± 0.0055	1.04 ± 0.024	1.07 ± 0.033
UniProt Q9NV70 and related entries	0.974 ± 0.013	0.963 ± 0.014	0.967 ± 0.022	0.9512 ± 0.0053	0.941 ± 0.018	0.969 ± 0.024
OCIAD1 (UniProt Q9NX40)	1.01 ± 0.026	1.06 ± 0.019	0.993 ± 0.053	0.975 ± 0.027	0.975 ± 0.046	0.973 ± 0.061
UniProt Q9NZL9 and related entries	1.05 ± 0.022	0.961 ± 0.023	0.9806 ± 0.0017	0.962 ± 0.02	0.972 ± 0.038	0.936 ± 0.022
UniProt Q9P2N6-3|Q9P2N6	1.02 ± 0.051	1.07 ± 0.021	1.06 ± 0.018	1.055 ± 0.0081	1.03 ± 0.029	1.09 ± 0.026
NANS (UniProt Q9NR45)	0.981 ± 0.015	0.932 ± 0.043	0.939 ± 0.011	0.954 ± 0.015	0.948 ± 0.036	0.918 ± 0.027
UniProt Q9NZL4 and related entries	0.963 ± 0.018	0.953 ± 0.02	0.979 ± 0.016	0.974 ± 0.042	0.994 ± 0.031	0.934 ± 0.051
UniProt Q9NQ88	1.03 ± 0.023	1.01 ± 0.03	1 ± 0.039	1.03 ± 0.034	1.03 ± 0.025	1.03 ± 0.051
FAM49B (UniProt Q9NUQ9)	1 ± 0.026	1.03 ± 0.055	0.985 ± 0.04	1 ± 0.03	0.967 ± 0.035	0.981 ± 0.053
UTP3 (UniProt Q9NQZ2)	1.01 ± 0.033	1.05 ± 0.039	1.03 ± 0.046	1.06 ± 0.069	1.12 ± 0.052	1.14 ± 0.058
EIF2B3 (UniProt Q9NR50)	0.937 ± 0.017	0.887 ± 0.095	0.938 ± 0.021	0.9434 ± 0.0087	0.961 ± 0.027	0.947 ± 0.046
SMYD2 (UniProt Q9NRG4)	0.997 ± 0.027	0.974 ± 0.042	0.997 ± 0.05	0.982 ± 0.064	0.989 ± 0.046	0.931 ± 0.055
MRC2 (UniProt Q9UBG0)	1.015 ± 0.01	1.03 ± 0.028	1.02 ± 0.03	1.009 ± 0.0082	1.03 ± 0.029	1.016 ± 0.0095
UniProt Q9NV96 and related entries	0.973 ± 0.067	1.03 ± 0.089	0.961 ± 0.048	0.995 ± 0.026	0.961 ± 0.056	0.969 ± 0.043
UniProt Q9P275 and related entries	1.05 ± 0.011	1.07 ± 0.035	1.14 ± 0.08	1.18 ± 0.11	1.22 ± 0.088	1.29 ± 0.096
TMOD2 (UniProt Q9NZR1)	0.97 ± 0.025	1.03 ± 0.038	0.977 ± 0.036	0.9653 ± 0.005	0.963 ± 0.029	0.978 ± 0.015
UniProt Q9NXE8	0.978 ± 0.043	0.9814 ± 0.0032	0.956 ± 0.043	0.995 ± 0.051	0.999 ± 0.059	0.992 ± 0.022
